The source of these data is paper PMC3799434, “RNA polymerase III-specific general transcription factor IIIC contains a heterodimer resembling TFIIF Rap30/Rap74” (Nucleic Acids Research, 2013).

No constants are given. Whether binding was seen depends on the method and setting. Some entries that bind do so weakly or less than the wild type. Tags and fused reporters may be left off the sequences shown.

For assay [1], the target named is T1, Sfc1 (S. pombe TFIIIC τA subunit), full length (Schizosaccharomyces pombe) (UniProt O14229).
T1 sequence: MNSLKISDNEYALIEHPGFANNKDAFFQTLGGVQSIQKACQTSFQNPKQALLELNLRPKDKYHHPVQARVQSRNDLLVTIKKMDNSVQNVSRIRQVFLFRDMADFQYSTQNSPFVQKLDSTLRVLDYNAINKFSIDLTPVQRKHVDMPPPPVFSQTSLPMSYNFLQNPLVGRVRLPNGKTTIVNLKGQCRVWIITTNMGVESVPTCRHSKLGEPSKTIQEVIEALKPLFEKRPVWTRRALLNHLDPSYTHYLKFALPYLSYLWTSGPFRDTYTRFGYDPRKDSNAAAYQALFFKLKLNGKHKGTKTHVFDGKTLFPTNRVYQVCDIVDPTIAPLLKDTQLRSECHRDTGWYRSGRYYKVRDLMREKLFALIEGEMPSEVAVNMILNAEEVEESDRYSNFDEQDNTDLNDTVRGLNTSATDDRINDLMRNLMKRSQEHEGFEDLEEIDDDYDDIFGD
Description: co-purification after co-expression; His-tagged Sfc1 and untagged Sfc7 co-expressed in E. coli; Ni-NTA, TEV digestion, second Ni-NTA, anion exchange (Mono Q), gel filtration (Superdex S200).

Assay [2] has as its target T2, Sfc1_(1-110(K48A,Q49A)) (Schizosaccharomyces pombe) (UniProt O14229).
T2 sequence: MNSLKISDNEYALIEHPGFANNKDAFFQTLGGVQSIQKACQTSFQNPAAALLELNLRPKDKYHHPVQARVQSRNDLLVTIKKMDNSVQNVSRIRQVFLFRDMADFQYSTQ
Description: crystal structure; hanging-drop vapour diffusion at 4°C; 0.1 M HEPES pH 7, 1.4 M ammonium sulphate; Hg derivative, SAD, 2.4 Å; both purified.

The target in assay [3] is T3, Sfc1-NT/Sfc7 heterodimer (Schizosaccharomyces pombe) (UniProt O14229+A6X980).
T3 sequence 1: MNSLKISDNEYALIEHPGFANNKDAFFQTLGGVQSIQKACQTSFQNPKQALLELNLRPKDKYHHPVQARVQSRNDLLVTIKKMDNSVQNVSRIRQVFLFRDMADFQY
T3 sequence 2: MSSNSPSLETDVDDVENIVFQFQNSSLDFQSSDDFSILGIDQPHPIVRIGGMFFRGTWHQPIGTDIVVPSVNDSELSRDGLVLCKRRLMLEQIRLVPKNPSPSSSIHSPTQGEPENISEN
Description: ion-exchange chromatography; fragments from limited proteolysis of the purified Sfc1/Sfc7 heterodimer, separated by ion-exchange chromatography; both purified.

Assay [4] concerns the target T3, Sfc1-NT/Sfc7 heterodimer (Schizosaccharomyces pombe). Description: SEC; gel filtration of the Sfc1-NT/Sfc7 heterodimer with the larger Sfc1 fragment; both purified. A general note: In gel filtration, larger molecules generally elute earlier.

B1: Sfc7 (S. pombe TFIIIC τA subunit), full length (protein, UniProt A6X980 1-120)
chain: T3 sequence 2
As for B1, the binding entry in assay [1] is reported as “binds”.

B2: Sfc7_(1-101) (domain or fragment, UniProt A6X980 1-101)
chain: MSSNSPSLETDVDDVENIVFQFQNSSLDFQSSDDFSILGIDQPHPIVRIGGMFFRGTWHQPIGTDIVVPSVNDSELSRDGLVLCKRRLMLEQIRLVPKNPS
Turning to B2, the binding entry in assay [2] is on record as “binds”.

B3: larger protease-resistant Sfc1 fragment (residues 186-396) (domain or fragment, UniProt O14229 186-396)
chain: KGQCRVWIITTNMGVESVPTCRHSKLGEPSKTIQEVIEALKPLFEKRPVWTRRALLNHLDPSYTHYLKFALPYLSYLWTSGPFRDTYTRFGYDPRKDSNAAAYQALFFKLKLNGKHKGTKTHVFDGKTLFPTNRVYQVCDIVDPTIAPLLKDTQLRSECHRDTGWYRSGRYYKVRDLMREKLFALIEGEMPSEVAVNMILNAEEVEESDRY
As for B3, the binding entry in assay [3] and in assay [4] was “no binding” each time.
